The record followed here is US11585819B2, “Bistrifilate-based fluorogenic probes for detection of superoxide anion radical” (THE UNIVERSITY OF HONG KONG, priority 2014, dated 2023).

This data set concerns BV-2 mouse microglial cells. The data set is described as follows: Confocal imaging comparison of HKSOX-2m and MitoSOX Red with multiple superoxide inducers, co-staining with MitoTracker Green and Hoechst. The format is cell-based. The method, then: To further validate the performance of HKSOX-2m as a mitochondria-targeting superoxide probe, we conducted confocal imaging of HKSOX-2m with multiple superoxide inducers in BV-2 mouse microglial cells (FIG. 11), and compared HKSOX-2m's performance with that of MitoSOX Red™ (a widely used commercial fluorescent probe for mitochondrial superoxide detection; Invitrogen), by using the same drugs as stimulants (FIG. 12). Briefly, BV-2 cells were co-incubated for 40 min with probes (HKSOX-2m or MitoSOX Red™) and general superoxide inducers (PMA and zymosan, which elicit superoxide production from multiple superoxide sources including mitochondria) or specific mitochondrial superoxide inducers (diethyl succinate, diethyl malonate, and rotenone, which target the mitochondrial respiratory chain complexes). […] Slight spatial shifts in fluorescence signal were occasionally observed in the HKSOX-2m and MitoTracker Green channels, which could be accounted for by mitochondrial dynamics and time lag in confocal laser scanning for each channel. […] In fact, fluorescence distribution of the mitochondrial dye MitoTracker Green (Ex 488; Em 505 nm long-pass) was grossly distorted in the presence of MitoSOX Red™ (due to its broad tailing in emission spectrum), resulting in a loss of mitochondrial morphology.

On to `CC1CC(C)(C)N(CCCC(=O)N2CCN(C(=O)CCCC[P+](c3ccccc3)(c3ccccc3)c3ccccc3)CC2)c2cc3c(cc21)C1(OC(=O)c2ccccc21)c1cc(F)c(OS(=O)(=O)C(F)(F)F)c(F)c1O3` (stereo not shown) [HKSOX-2m], for which, for the setting “HKSOX-2m 2 μM, co-staining with MitoTracker Green 10 nM and Hoechst 33342 1 μg/mL”, the subcellular distribution result is “cytoplasmically distributed and well co-localized with mitochondria”. Besides, the “mitochondrial morphology in the probe channel” value (HKSOX-2m 2 μM, drug-treated groups) is given as “clear mitochondrial morphology could be discerned”.

Consider `Nc1ccc2c(c1)C(c1ccccc1)N(CCCCCC[P+](c1ccccc1)(c1ccccc1)c1ccccc1)c1cc(N)ccc1-2.[I-]` (stereo not shown) [MitoSOX Red™], for which, under “MitoSOX Red 4 μM”, the subcellular distribution result is “stained nuclear DNA and fluoresced brightly in the nucleus”. The “mitochondrial morphology in the probe channel” value (MitoSOX Red 4 μM, Em 565-615 nm band-pass) is reported as “no distinct mitochondrial morphology could be observed”.
